Assay results from PubChem BioAssay AID1688 (National Center for Advancing Translational Sciences (NCATS), 2009).
Out of some 220,000 compounds screened, about 2,400 (1.1%) were called active. This list was built around the results that the source calls inconclusive (neither active nor inactive); the mix of calls is not that of the screen. Calls follow the shape of the dose curve; as a rule, active = well fitted inhibition curve with a large enough effect; inconclusive = small, poorly fitted or top-dose-only effect, or effect the other way; inactive = no such curve, though single readings can be large or run the other way. Potencies of inconclusive entries are doubtful fits and often do not repeat.
% is scaled to controls: 0 for no effect and ±100 for the full control effect; potency is read from the fitted curve at half-maximal effect.

Experiment: qHTS Multiplex Assay to Identify Dual Action Probes in a Cell Model of Huntington: Aggregate Formation (GFP); also: nearly all actives have a fitted effect of over 60% in size
Settings: PC12 HttQ103-GFP aggregates, Acumen cytometry, 40 h; activity change, negative = inhibition: at 46.1 µM (top of the series) unless noted
Procedure, shortened: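 Steps: seed 1500 PC12 HTTQ103-GFP cells/well; add tebufenozide, 100 nM final; add compound titration; add ATPLite reagent; quantify GFP aggregates by laser scanning cytometry.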
For `CC1(C)Cc2cccc(OCC(=O)N3CCN(c4ccccc4)CC3)c2O1`, the “activity change, negative = inhibition” value was inactive: -20%.
In the case of `COC(=O)c1ccc(NC2CC(=O)N(c3ccccc3C)C2=O)cc1` (stereo not given), the “activity change, negative = inhibition” value is reported as inactive: -2.1%.
With `CCOc1ccc(Cn2c(SCCCCC#N)nc3c2c(=O)n(C)c(=O)n3C)cc1OCC` the Potency was inconclusive: 8.91 µM [activator, partial curve].
With `Cc1cc(C(=O)NCc2cccs2)c(C)o1` the “activity change, negative = inhibition” value was inactive: 30.6%.
With `CC1CCc2c(sc3ncnc(NCCCOC(C)C)c23)C1` (stereo not given) the Potency was inconclusive: 25.1 µM [inhibitor, single point].
For `S=c1[nH]nc(COc2ccccc2)n1C1CCCCC1`, the “activity change, negative = inhibition” value was inactive: 4.8%.
With `CCCN(c1ccc(OCC)cc1)c1ncnc2nc[nH]c12` the Potency was active: 11.2 µM.
For `CC(=O)Cc1nsc(NC(=O)c2cc(-c3cccc(C(F)(F)F)c3)oc2C)n1`, the Potency was inconclusive: 35.5 µM [inhibitor, single point].
In the case of `Cc1cccc(Nc2n[nH]c(C)c2[N+](=O)[O-])c1`, the “activity change, negative = inhibition” value is reported as inactive: 2.37%.
In the case of `O=C(Nc1ccccc1)C1CCCN1/C=C/C(=O)C(F)(F)F` (stereo not given), the Potency is reported as inconclusive: 8.91 µM [activator, partial curve, poor fit].
With `Cc1cc(N(CCO)CCO)nc(-n2nc(C)cc2C)n1` the “activity change, negative = inhibition” value was inactive: -1.41%.
In the case of `Oc1[nH]c2ccccc2c1N=NC(=S)N1CCOCC1`, the Potency is reported as inconclusive: 5.62 µM [inhibitor, single point].
In the case of `COc1ccc2c(c1)[nH]c(=O)c1sc3ccccc3c12`, the Potency is reported as inconclusive: 0.501 µM [activator, partial curve, poor fit].
In the case of `NC(=O)c1ccccc1N/C=C/C(=O)c1ccc(Cl)cc1Cl`, the Potency is reported as inconclusive: 35.5 µM [inhibitor, single point].
For `CCC(C)NC(=O)c1n[nH]c(=O)c2ccccc12` (stereo not given), the Potency was inconclusive: 0.562 µM [activator, full curve, poor fit].
In the case of `Cc1ccc(OCCNC(=O)c2cccc(Oc3ccc(C(F)(F)F)cc3[N+](=O)[O-])c2)cc1`, the “activity change, negative = inhibition” value is reported as inactive: -7.3%.
In the case of `NS(=O)(=O)c1ccc(CCNC2CC(=O)N(CCc3ccccc3)C2=O)cc1` (stereo not given), the “activity change, negative = inhibition” value is reported as inactive: -0.727%.
With `Cc1nc2ccccn2c1C(=O)N/N=C/c1ccc([N+](=O)[O-])o1` the Potency was inconclusive: 17.8 µM [inhibitor, single point].
For `Cc1cnn2c(C3CC3)ccnc12`, the Potency was inconclusive: 10 µM [inhibitor, partial curve].
For `O=C(COC(=O)c1ccc(Br)o1)Nc1ncc(Cl)cc1Cl`, the “activity change, negative = inhibition” value was inactive: 10.4%.
In the case of `CCc1nnc(NC(=O)CSc2nc(-c3ccccc3)cc(-c3ccc(F)cc3)c2C#N)s1`, the “activity change, negative = inhibition” value is reported as inactive: 3.39%.
In the case of `Cc1c(C(=O)N2CCOCC2)[nH]c2ccc(OCc3ccccc3)cc12`, the Potency is reported as inconclusive: 14.1 µM [inhibitor, single point].
In the case of `COc1ccc(NC(=S)NCCc2ccc(Cl)cc2)c(OC)c1`, the Potency is reported as inconclusive: 14.1 µM [inhibitor, single point].
For `Cc1ccc(/C=N\NC(=O)C2CC(=O)N(c3ccccc3)C2)o1` (stereo not given), the activity change, negative = inhibition was inactive: -3.88% [at 9.22 µM].
For `COc1ccc(C(=O)Cc2ccc(OC)c(OC)c2)c(OC)c1`, the Potency was inconclusive: 0.562 µM [inhibitor, full curve, poor fit].
With `Cn1ccs/c1=N\C(=O)Nc1cccc(Cl)c1` the activity change, negative = inhibition was inactive: 2.21% [at 9.22 µM].
In the case of `CCc1c(O)nc(SCC(=O)Nc2ccc(C)cc2)n(C2CCCCC2)c1=O`, the Potency is reported as active: 11.2 µM.
With `CC(=O)c1c(C(C)=O)c(C)n(-c2nc(-c3ccc(Br)cc3)c(C)s2)c1C` the Potency was inconclusive: 28.2 µM [inhibitor, single point].
With `Cc1cc(C)nc(N/N=C/c2ccc3c(c2)OCCO3)n1` the Potency was inconclusive: 35.5 µM [inhibitor, single point].
In the case of `Cc1ccc(SCCNC(=S)Nc2ccc(C)cc2C)cc1`, the Potency is reported as inconclusive: 14.1 µM [inhibitor, single point].
For `O=C(CC1NCCNC1=O)Nc1cccc([N+](=O)[O-])c1` (stereo not given), the “activity change, negative = inhibition” value was inactive: 14%.
For `O=C(CSc1nc2ccccc2[nH]1)N/N=C/C=C/c1ccccc1[N+](=O)[O-]`, the Potency was inconclusive: 31.6 µM [activator, single point].
For `CC(=O)Nc1ccc(-n2nnnc2SCC(=O)N2CCN(C(=O)c3ccco3)CC2)cc1`, the “activity change, negative = inhibition” value was inactive: 2.82%.
In the case of `CCN(CC)CCOc1ccc(Cc2ccccc2)cc1`, the Potency is reported as inconclusive: 35.5 µM [inhibitor, single point].
For `CCCC(=O)Nc1ccc(C(=O)N/N=C/c2ccc([N+](=O)[O-])o2)cc1`, the Potency was inconclusive: 14.1 µM [inhibitor, partial curve].
With `C/C(=N\NC(=O)c1cc(Cl)ccc1O)c1ccc(Br)s1` the Potency was inconclusive: 7.08 µM [inhibitor, partial curve].
For `Cc1ccc(S(=O)(=O)N2CCC(C(=O)NNS(=O)(=O)c3ccc(Cl)cc3)CC2)cc1`, the Potency was inconclusive: 11.2 µM [inhibitor, partial curve].
For `CC(NC(=O)OC(C)(C)C)C(=O)Oc1cc2oc(=O)cc(-c3ccccc3)c2cc1Cl` (stereo not given), the Potency was active: 6.31 µM.
For `CCCN(Cc1cc2cc(C)ccc2[nH]c1=O)C(=O)c1cccc(OC)c1`, the Potency was active: 10 µM.
For `O=C(/C(=C/c1ccc(Cl)cc1)c1nc2ccccc2[nH]1)c1cccs1`, the Potency was active: 5.01 µM.
For `NC(=O)COC(=O)c1oc2ccccc2c1CSc1ccc(Cl)cc1`, the Potency was active: 11.2 µM.
In the case of `CC(C(=O)OCC(=O)Nc1cccc(S(=O)(=O)N2CCOCC2)c1)N1C(=O)c2ccccc2C1=O` (stereo not given), the “activity change, negative = inhibition” value is reported as inactive: -5.18%.
For `CCCCCC1CC(CC(C)C(=O)Nc2nncs2)C(=O)O1` (stereo not given), the “activity change, negative = inhibition” value was inactive: -1.75%.
With `COc1cccc(CC(=O)Nc2nc3c(s2)C(=O)CC(C)(C)C3)c1` the “activity change, negative = inhibition” value was inactive: -36.4%.
With `Cc1ccccc1NC(=O)Cn1c(=O)n(Cc2ccccc2)c(=O)c2c(C)c(C)sc21` the “activity change, negative = inhibition” value was inactive: 2.84%.
For `CCC(C)Cn1c(C)nc2ccccc21` (stereo not given), the Potency was active: 20 µM.
With `Cc1nc(C)c(-c2csc(N)n2)s1` the Potency was inconclusive: 2.82 µM [inhibitor, partial curve].
With `O=C(CSc1nnc(COc2ccc(Cl)cc2)o1)N1c2ccccc2CCc2ccccc21` the “activity change, negative = inhibition” value was inactive: -14.2%.
For `O=C(CC(C(=O)O)c1ccc(Cl)cc1)c1ccccc1` (stereo not given), the “activity change, negative = inhibition” value was inactive: 9.4%.
For `C=CCNC(=O)COc1ccc(Oc2ccccc2)cc1`, the Potency was inconclusive: 35.5 µM [inhibitor, single point].
